Test results from patent US20220257578A1, “COMPOSITION AND METHOD FOR TREATING CANDIDA AURIS INFECTION” (Appili Therapeutics Inc., priority 2019, published 2022).
Some results were stated once for a whole list of compounds, not compound by compound.

System: C. auris (DI 17-46)
Experiment: Neutropenic mice with invasive candidiasis secondary to C. auris (survival arm and fungal burden arm)
Assay type: in vivo
Conditions: T-2307 3 mg/kg SC once daily for 7 days; followed to day 21; control 5 days
Protocol: FIG. 1 depicts survival curves in mice inoculated intravenously with C. auris and treated with vehicle control, fluconazole 20 mg/kg PO QD, or caspofungin 10 mg/kg IP QD (A) or T-2307 at doses of 0.75 mg/kg, 1.5 mg/kg, or 3 mg/kg SC QD (B). Treatment started one day post-inoculation and continued for 7 days. Mice were then followed off therapy until day 21 post-inoculation (14 days after therapy stopped). Black square—vehicle control; white circle—fluconazole 20 mg/kg; black circle—caspofungin 10 mg/kg; inverted gray triangle T-2307 0.75 mg/kg; gray rectangle—T-2307 1.5 mg/kg; gray triangle—T-2307 3 mg/kg. N=10 mice per group.
(§1) FIG. 2 depicts graphs showing kidney (A) and brain (B) fungal burden (CFU/g) in mice with invasive candidiasis secondary to C. auris in the fungal burden arm. Colony-forming units were measured on day 8 post-inoculation after 7 days of therapy. N=10 mice in the vehicle control and treatment groups; N=5 mice in the 24-hour control group.
as §1, with “FIG. 3” for “FIG. 2”, “the survival” for “the fungal burden”, “group. […]” for “group.”

Question: For `N=C(N)c1ccc(OCCCC2CCN(CCCOc3ccc(C(=N)N)cc3)CC2)cc1` [T-2307, 4-{3-[4-(3-{4-[amino(imino)methyl]phenoxy}propyl)-1-piperidinyl]propoxy}benzamidine], which median survival is on record?
Answer: The median survival was over 21 days.
